Data reported in PubChem BioAssay AID1487 (National Center for Advancing Translational Sciences (NCATS), 2009).
Values joined by “and” are separate entries in the source; they are usually repeats but may differ in a detail not shown here. Equal values may be shown once. The list shows a part of the results. The main result of the screen is listed elsewhere. These columns were measured beside it and carry no call. Compounds called inactive in the main read-out are mostly missing here. The note in brackets gives the kind of curve behind each potency; many fits are weak.

Assay: qHTS Assay for Modulators of Lamin A Splicing
Details: HeLa LMNA splicing GFP/RFP minigene ratio, 48 h
Outline: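 S3 HeLa cells stably expressing lamin A-EGFP splicing minigene plus DsRed2, 600 cells/well, 48 h compound exposure at 37C. Laser-scanning cytometry; analysed as GFP (500-530 nm)/RFP (575-640 nm) total intensity ratio; 0.5% DMSO vehicle.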

[1] = measured here: RFP viability control channel
[2] = measured here: GFP splicing reporter channel

| SMILES | AC50 [1] | AC50 [2] |
| --- | --- | --- |
| CCCCn1c(=O)c(C=Nc2cc([N+](=O)[O-])ccc2OC)c(O)n(CCCCl)c1=O | 0.794 µM [falling, full curve, poor fit] |  |
| Cc1ccccc1CN1CCNCC1 |  | 3.55 µM [rising, partial curve] |
| Cc1ccc(-n2c(/C=C/c3ccccc3)nc3ccccc3c2=O)cc1C | 0.224 µM [rising, partial curve, poor fit] |  |
| C[N+]12CCC(CC1)C(=C(c1ccccc1)c1ccccc1)C2 |  | 20 µM [rising, partial curve, poor fit] |
| COc1cccc(-n2c(O)c(C=Nc3c(C)n(C)n(-c4ccccc4)c3=O)c(=O)[nH]c2=O)c1 | 0.0316 µM [falling, full curve, poor fit] | 0.0282 µM [falling, full curve, poor fit] |
| CC[C@@H](CO)NC(=O)[C@@H]1C=C2c3cccc4[nH]cc(c34)C[C@H]2N(C)C1 | 12.6 µM [rising, single point] | 12.6 µM [rising, single point] |
| CN1/C(=C\C=Nc2ccccc2)C(C)(C)c2ccccc21 | 12.6 µM [rising, partial curve] | 8.91 µM [rising, partial curve] |
| COc1ccc2oc3c(c2c1)NC(=O)CN=C3c1ccccc1 |  | 22.4 µM [falling, single point] |
| COc1cc(C2c3cc4c(c(O)c3CC3COC(=O)C32)OCO4)cc(OC)c1OC (configuration not stated) | 1.26 µM [falling, full curve] | 0.891 µM [falling, full curve] |
| CCC1(C2=NCCN2)Cc2ccccc2O1 (configuration not stated) |  | 0.0708 µM [falling, full curve, poor fit] |
| CCOC(=O)C1(CCc2ccccc2)CCN(C2CCSCC2)CC1 | 0.0891 µM [falling, full curve, poor fit] | 0.1 µM [falling, full curve, poor fit] |
| Cc1cccc(-n2c(/C=C/c3cccc4ccccc34)nc3ccccc3c2=O)c1 | 35.5 µM [rising, single point] |  |
| CCOC(=O)c1ncn2c1[C@@H]1CCCN1C(=O)c1cc(OC)ccc1-2 | 0.00316 µM [falling, full curve, poor fit] | 8.91 µM [falling, partial curve, poor fit] |
| NC(N)=Nc1ccc2[nH]c3c(c2c1)C[C@@]1(O)[C@H]2Cc4ccc(O)c5c4[C@@]1(CCN2CC1CC1)[C@H]3O5 | 20 µM [falling, single point] | 3.16 µM [rising, partial curve] |
| Cc1ccc(-n2c(/C=C/c3cccc(C(F)(F)F)c3)nc3ccccc3c2=O)cc1 |  | 0.0112 µM [falling, full curve, poor fit] |
| CCC(C(=O)O)C1CCC(C)C(C(C)C(O)C(C)C(=O)C(CC)C2OC3(C=CC(O)[C@@]4(CC[C@](C)(C5CC[C@@](O)(CC)C(C)O5)O4)O3)C(C)CC2C)O1 (some centres not stated) | 0.112 µM [rising, partial curve] | 0.0316 µM [rising, partial curve] |
| C[N+]12CCC(CC1)[C@@H](OC(=O)C(O)(c1ccccc1)c1ccccc1)C2 | 0.000355 µM [rising, full curve, poor fit] |  |
| Cc1cc(=O)[nH]c(SCc2nc3ccccc3c(=O)n2-c2ccccc2C)n1 | 3.55 µM [rising, partial curve] |  |
| CCCCCn1c(=O)c(C(=O)NCc2ccncc2)c(O)c2ccccc21 | 11.2 µM [rising, partial curve] | 8.91 µM [rising, partial curve, poor fit] |
| Cc1nnc2n1-c1ccc(Cl)cc1C(c1ccccc1)=NC2 | 0.0126 µM [rising, full curve, poor fit] |  |
| CCn1cc(C(=O)NCc2ccccc2)c2ccccc21 | 0.0141 µM [falling, full curve, poor fit] |  |
| C[C@H]1O[C@@H](O[C@H]2[C@@H](O)C[C@H](O[C@H]3[C@@H](O)C[C@H](O[C@H]4CC[C@@]5(C)[C@H](CC[C@@H]6[C@@H]5CC[C@]5(C)[C@@H](C7=CC(=O)OC7)CC[C@]65O)C4)O[C@@H]3C)O[C@@H]2C)C[C@H](O)[C@@H]1O | 1.12 µM [rising, full curve] | 1.12 µM [rising, full curve] |
| CC(C)(C)c1ccc(O)cc1 | 0.00316 µM [rising, full curve, poor fit] |  |
| O=Cc1c(C(=O)O)n(Cc2ccc(Cl)cc2)c2ccccc12 | 35.5 µM [falling, single point] | 28.2 µM [falling, partial curve] |
| CCCCN1CCC(O)(c2ccccc2)C(C(=O)c2ccccc2)C1 (configuration not stated) | 15.8 µM [rising, single point] |  |
| COc1ccc2c3c1O[C@H]1C[C@@H](O)C=C[C@@]31CCN(C)C2 |  | 3.16 µM [falling, partial curve] |

15 compounds out of the list, arranged by molecular weight, high to low.

| SMILES | AC50 [1] | AC50 [2] |
| --- | --- | --- |
| NC(N)=Nc1ccc2[nH]c3c(c2c1)C[C@@]1(O)[C@H]2Cc4ccc(O)c5c4[C@@]1(CCN2CC1CC1)[C@H]3O5 | 20 µM [falling, single point] | 3.16 µM [rising, partial curve] |
| COc1cccc(-n2c(O)c(C=Nc3c(C)n(C)n(-c4ccccc4)c3=O)c(=O)[nH]c2=O)c1 | 0.0316 µM [falling, full curve, poor fit] | 0.0282 µM [falling, full curve, poor fit] |
| CCCCn1c(=O)c(C=Nc2cc([N+](=O)[O-])ccc2OC)c(O)n(CCCCl)c1=O | 0.794 µM [falling, full curve, poor fit] |  |
| Cc1cc(=O)[nH]c(SCc2nc3ccccc3c(=O)n2-c2ccccc2C)n1 | 3.55 µM [rising, partial curve] |  |
| Cc1cccc(-n2c(/C=C/c3cccc4ccccc34)nc3ccccc3c2=O)c1 | 35.5 µM [rising, single point] |  |
| CCCCCn1c(=O)c(C(=O)NCc2ccncc2)c(O)c2ccccc21 | 11.2 µM [rising, partial curve] | 8.91 µM [rising, partial curve, poor fit] |
| CCOC(=O)C1(CCc2ccccc2)CCN(C2CCSCC2)CC1 | 0.0891 µM [falling, full curve, poor fit] | 0.1 µM [falling, full curve, poor fit] |
| C[N+]12CCC(CC1)[C@@H](OC(=O)C(O)(c1ccccc1)c1ccccc1)C2 | 0.000355 µM [rising, full curve, poor fit] |  |
| CCOC(=O)c1ncn2c1[C@@H]1CCCN1C(=O)c1cc(OC)ccc1-2 | 0.00316 µM [falling, full curve, poor fit] | 8.91 µM [falling, partial curve, poor fit] |
| O=Cc1c(C(=O)O)n(Cc2ccc(Cl)cc2)c2ccccc12 | 35.5 µM [falling, single point] | 28.2 µM [falling, partial curve] |
| Cc1nnc2n1-c1ccc(Cl)cc1C(c1ccccc1)=NC2 | 0.0126 µM [rising, full curve, poor fit] |  |
| C[N+]12CCC(CC1)C(=C(c1ccccc1)c1ccccc1)C2 |  | 20 µM [rising, partial curve, poor fit] |
| COc1ccc2c3c1O[C@H]1C[C@@H](O)C=C[C@@]31CCN(C)C2 |  | 3.16 µM [falling, partial curve] |
| CCn1cc(C(=O)NCc2ccccc2)c2ccccc21 | 0.0141 µM [falling, full curve, poor fit] |  |
| CC(C)(C)c1ccc(O)cc1 | 0.00316 µM [rising, full curve, poor fit] |  |

More results:

| SMILES | AC50 [1] | AC50 [2] |
| --- | --- | --- |
| CCCCOc1nc2ccccc2c(=O)n1-c1ccccc1 | 11.2 µM [rising, partial curve] | 10 µM [rising, partial curve, poor fit] |
| CN(C)c1ccc(/C=C/[N+](=O)[O-])cc1 | 35.5 µM [rising, single point] |  |
| CC(=O)Nc1ccc(S(=O)(=O)N(C)CCOCc2ccccc2)cc1 | 12.6 µM [rising, single point] |  |
| Cc1ccnc(-n2c(-c3ccco3)nc3ccccc3c2=O)c1 | 0.0224 µM [rising, full curve, poor fit] |  |
| CCOc1ccc2nc(N3CCC(C(=O)N4CCC5(CC4)OCCO5)CC3)sc2c1 | 15.8 µM [rising, partial curve] | 20 µM [rising, single point] |
| CCn1c(O)c(C(=O)CC2NCCc3ccccc32)c(=O)n(CC)c1=S (configuration not stated) | 6.31 µM [rising, partial curve] | 6.31 µM [rising, partial curve] |
| Clc1ccc(Cl)cc1 | 35.5 µM [falling, single point] | 3.98 µM [falling, partial curve, poor fit] |
| Cc1cccc(CN2C(=O)CN=C(c3ccccc3Cl)c3cc(Cl)ccc32)c1 | 35.5 µM [rising, single point] |  |
| COc1cc2c(c(OC)c1OC)-c1ccc(O)c(=O)cc1C(NC(C)=O)CC2 (configuration not stated) | 0.891 µM [falling, full curve] | 0.794 µM [falling, full curve] |
| Cn1ccc(NC(=O)CCl)n1 | 14.1 µM [falling, partial curve] |  |
| COc1ccc(C(=O)CC2(CC(=O)c3ccc(OC)cc3)C(=O)N(C)C(=O)N(C)C2=O)cc1 |  | 20 µM [rising, single point] |
| Cc1cc(OC(=O)CCNC(=O)OC(C)(C)C)c2c3c(c(=O)oc2c1)CCC3 | 35.5 µM [rising, single point] | 35.5 µM [rising, single point] |
| C[C@]12CC[C@H]3[C@@H](CCC4=CC(=O)CC[C@@]43C)[C@@H]1CC[C@@H]2C(=O)CO |  | 12.6 µM [rising, single point] |
| O=c1[nH]oc2c1CCNC2 |  | 11.2 µM [rising, partial curve, poor fit] |
| O=C(O)CCCCC1SCC2NC(=O)NC21 (configuration not stated) | 0.01 µM [rising, full curve] |  |
| C[C@@]12CC[C@H](O)C[C@@H]1CC[C@H]1[C@H]2CC[C@@]2(C)[C@@H](C3=CC(=O)OC3)CC[C@]12O | 0.0178 µM [falling, full curve] | 2.24 µM [falling, partial curve] |
| CC(=NCCC(c1ccccc1)c1ccccc1)c1c(O)n(C)c(=O)n(C)c1=O | 28.2 µM [rising, partial curve] |  |
| O=C(CCCN1CCC2(CC1)C(=O)NCN2c1ccccc1)c1ccc(F)cc1 | 22.4 µM [rising, single point] and 35.5 µM [rising, single point] | 12.6 µM [rising, partial curve, poor fit] and 17.8 µM [rising, partial curve, poor fit] and 6.31 µM [falling, partial curve] |
| O=C1/C(=C/c2ccc([N+](=O)[O-])cc2)N2CCC1CC2 | 15.8 µM [rising, single point] |  |
| COC[C@H]1OC(=O)c2coc3c2[C@@]1(C)C1=C(C3=O)C2CCC(=O)[C@@]2(C)C[C@H]1OC(C)=O (some centres not stated) | 11.2 µM [falling, partial curve] | 15.8 µM [falling, partial curve] |
| CC(=NC(C)c1ccccc1)c1c(O)[nH]c(=O)[nH]c1=O (configuration not stated) | 0.794 µM [falling, full curve, poor fit] |  |
| CC1CCCCN1C(=O)c1ccc(N2CC3CC(C2)c2cccc(=O)n2C3)c([N+](=O)[O-])c1 (configuration not stated) | 20 µM [rising, single point] |  |
| Cc1nc2ccccc2c(=O)n1-c1ccc(Br)cc1[N+](=O)[O-] | 0.708 µM [falling, single point] | 0.794 µM [falling, full curve, poor fit] |
| O=C(Nc1cccnc1)c1c(O)c2c(n(Cc3ccccc3)c1=O)CCCC2 | 15.8 µM [rising, single point] |  |
| CCn1c(CNC(=O)c2ccc3c(c2)OCO3)nnc1SCC(=O)Nc1cc(C)ccc1OC | 20 µM [rising, single point] |  |
